Data on one compound can be found in paper PMC6271241, “Several Human Cyclin-Dependent Kinase Inhibitors, Structurally Related to Roscovitine, As New Anti-Malarial Agents” (Molecules, 2014).

Read-outs that look alike come from different tables or passages of the source.

The subject of test [1] is Pf3D7. The test can be described thus: [3H]hypoxanthine incorporation growth assay, Pf3D7. It is filed as cell-based. As to conditions: Plasmodium falciparum. As for the experimental part: (§1) A selection of 15 molecules 4b–c, 10–13 representing the different 2,6,9-trisubstituted purine series, including newly synthesized products was screened as anti-malarial agents on two different P. falciparum strains, Pf3D7, a standard drug-sensitive African stain, and Pf7G8, a brazilian chloroquino-resistant strain (Figure 3). The compound activity was evaluated during the parasitic erythocytic cycle, by the means of a [^3H] hypoxanthine incorporation assay. It is directly correlated to parasite viability, as described in the experimental section.
(§2) At first, the activity of the fifteen compounds was screened at three different concentrations (10, 50 and 100 µM) on Pf3D7. Chloroquine which is not a kinase inhibitor, but which is the antimalarial reference drug was used as the positive control. […] Chloroquine was again used as a positive control.
(§3) Compounds were tested against synchronous ring-stage parasites of Pf3D7 and Pf7G8 strains. Drugs testing were carried out in 96-well microtiter plates. The chloroquine (CQ) diphosphate was purchased from Sigma (Lyon, France). […] For each assay, each drug dilution was analyzed in triplicate. […]

Test [2] has as its system Pf7G8. The test can be described thus: [3H]hypoxanthine incorporation growth assay, Pf7G8. It is filed as cell-based. As to conditions: Plasmodium falciparum. As for the experimental part:
as §1, §2, §3

The target in test [3] is GSK-3α/β. The test can be described thus: GSK-3α/β kinase assay (GS-1 peptide). As to conditions: 15 µM ATP; Table 1; >10 = no activity at 10 µM.

Broadly, the IC50 is the concentration at which inhibition is half-maximal.

In the case of `CC[C@H](CO)Nc1nc(NCc2ccccc2)c2ncn(C(C)C)c2n1` [Compound 1, (R)-roscovitine, reference compound], the 50% inhibitory concentration (IC50) in test [1] (48 h, read-out: Growth IC50 Pf3D7) was 10.5 µM; in test [1] (read-out: IC50 on P. falciparum Strains Pf3D7) it was 10.5 µM; in test [2] (48 h, read-out: Growth IC50 Pf7G8), 12.6 µM; in test [2] (read-out: IC50 on P. falciparum Strains Pf7G8), 12.6 µM. Moreover, in test [3], the “IC50 GSK-3αβ” value is reported as “N.I”.
